According to article doi:10.1101/2022.10.14.512051:
These are yes or no findings as the source states them, for the method shown. In cells and extracts the contact can be indirect. Some binding calls cover weakened binding; strength is not graded here. For some of these results: Tags and fused reporters may be left off the sequences shown.

Amino acid sequences for entries named in this document (tags omitted).
UniProt Q13620: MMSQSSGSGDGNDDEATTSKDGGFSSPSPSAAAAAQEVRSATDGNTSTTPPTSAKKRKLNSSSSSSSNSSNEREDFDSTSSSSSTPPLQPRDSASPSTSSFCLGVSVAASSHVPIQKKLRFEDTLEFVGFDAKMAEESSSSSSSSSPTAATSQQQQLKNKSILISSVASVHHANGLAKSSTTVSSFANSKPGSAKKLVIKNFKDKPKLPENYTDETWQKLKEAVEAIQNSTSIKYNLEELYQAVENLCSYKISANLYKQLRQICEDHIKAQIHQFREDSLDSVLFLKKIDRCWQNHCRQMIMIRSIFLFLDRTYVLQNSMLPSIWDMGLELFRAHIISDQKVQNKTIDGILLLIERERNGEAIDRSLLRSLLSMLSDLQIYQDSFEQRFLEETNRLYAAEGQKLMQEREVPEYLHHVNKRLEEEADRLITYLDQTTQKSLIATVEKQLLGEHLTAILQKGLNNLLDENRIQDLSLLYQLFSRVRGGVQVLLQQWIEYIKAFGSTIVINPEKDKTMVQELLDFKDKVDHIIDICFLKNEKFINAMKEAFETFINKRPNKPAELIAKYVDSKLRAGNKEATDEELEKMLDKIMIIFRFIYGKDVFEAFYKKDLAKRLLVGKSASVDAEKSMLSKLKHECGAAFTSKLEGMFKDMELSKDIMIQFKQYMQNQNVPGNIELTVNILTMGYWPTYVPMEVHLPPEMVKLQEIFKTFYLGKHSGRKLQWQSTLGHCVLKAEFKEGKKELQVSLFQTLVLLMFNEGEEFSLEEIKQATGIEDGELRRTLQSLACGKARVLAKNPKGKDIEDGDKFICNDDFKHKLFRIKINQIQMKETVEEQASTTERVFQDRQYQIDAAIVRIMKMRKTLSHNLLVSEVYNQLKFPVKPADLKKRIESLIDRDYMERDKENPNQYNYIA

What was measured:
[1] = target: HA-tagged CUL4B, wild type (endogenously tagged) (human (endogenous in HeLa Kyoto)) (UniProt Q13620); assay: co-IP
[2] = target: Strep-tagged CUL4B (Sf9 co-expression) (human) (UniProt Q13620); assay: pull-down

Binder	binding [1]	binding [2]
WDR1 (endogenous) (protein, UniProt O75083 1-606) MPYEIKKVFASLPQVERGVSKIIGGDPKGNNFLYTNGKCVILRNIDNPALADIYTEHAHQVVVAKYAPSGFYIASGDVSGKLRIWDTTQKEHLLKYEYQPFAGKIKDIAWTEDSKRIAVVGEGREKFGAVFLWDSGSSVGEITGHNKVINSVDIKQSRPYRLATGSDDNCAAFFEGPPFKFKFTIGDHSRFVNCVRFSPDGNRFATASADGQIYIYDGKTGEKVCALGGSKAHDGGIYAISWSPDSTHLLSASGDKTSKIWDVSVNSVVSTFPMGSTVLDQQLGCLWQKDHLLSVSLSGYINYLDRNNPSKPLHVIKGHSKSIQCLTVHKNGGKSYIYSGSHDGHINYWDSETGENDSFAGKGHTNQVSRMTVDESGQLISCSMDDTVRYTSLMLRDYSGQGVVKLDVQPKCVAVGPGGYAVVVCIGQIVLLKDQRKCFSIDNPGYEPEVVAVHPGGDTVAIGGVDGNVRLYSILGTTLKDEGKLLEAKGPVTDVAYSHDGAFLAVCDASKVVTVFSVADGYSENNVFYGHHAKIVCLAWSPDNEHFASGGMDMMVYVWTLSDPETRVKIQDAHRLHHVSSLAWLDEHTLVTTSHDASVKEWTITY	binds	
FLAG-tagged WDR1 (Sf9 co-expression) (protein, UniProt O75083 1-606) MPYEIKKVFASLPQVERGVSKIIGGDPKGNNFLYTNGKCVILRNIDNPALADIYTEHAHQVVVAKYAPSGFYIASGDVSGKLRIWDTTQKEHLLKYEYQPFAGKIKDIAWTEDSKRIAVVGEGREKFGAVFLWDSGSSVGEITGHNKVINSVDIKQSRPYRLATGSDDNCAAFFEGPPFKFKFTIGDHSRFVNCVRFSPDGNRFATASADGQIYIYDGKTGEKVCALGGSKAHDGGIYAISWSPDSTHLLSASGDKTSKIWDVSVNSVVSTFPMGSTVLDQQLGCLWQKDHLLSVSLSGYINYLDRNNPSKPLHVIKGHSKSIQCLTVHKNGGKSYIYSGSHDGHINYWDSETGENDSFAGKGHTNQVSRMTVDESGQLISCSMDDTVRYTSLMLRDYSGQGVVKLDVQPKCVAVGPGGYAVVVCIGQIVLLKDQRKCFSIDNPGYEPEVVAVHPGGDTVAIGGVDGNVRLYSILGTTLKDEGKLLEAKGPVTDVAYSHDGAFLAVCDASKVVTVFSVADGYSENNVFYGHHAKIVCLAWSPDNEHFASGGMDMMVYVWTLSDPETRVKIQDAHRLHHVSSLAWLDEHTLVTTSHDASVKEWTITY		binds
LIS1 (endogenous) (protein, UniProt P43034 1-410) MVLSQRQRDELNRAIADYLRSNGYEEAYSVFKKEAELDVNEELDKKYAGLLEKKWTSVIRLQKKVMELESKLNEAKEEFTSGGPLGQKRDPKEWIPRPPEKYALSGHRSPVTRVIFHPVFSVMVSASEDATIKVWDYETGDFERTLKGHTDSVQDISFDHSGKLLASCSADMTIKLWDFQGFECIRTMHGHDHNVSSVAIMPNGDHIVSASRDKTIKMWEVQTGYCVKTFTGHREWVRMVRPNQDGTLIASCSNDQTVRVWVVATKECKAELREHEHVVECISWAPESSYSSISEATGSETKKSGKPGPFLLSGSRDKTIKMWDVSTGMCLMTLVGHDNWVRGVLFHSGGKFILSCADDKTLRVWDYKNKRCMKTLNAHEHFVTSLDFHKTAPYVVTGSVDQTVKVWECR	binds	
FLAG-tagged LIS1 (Sf9 co-expression) (protein, UniProt P43034 1-410) MVLSQRQRDELNRAIADYLRSNGYEEAYSVFKKEAELDVNEELDKKYAGLLEKKWTSVIRLQKKVMELESKLNEAKEEFTSGGPLGQKRDPKEWIPRPPEKYALSGHRSPVTRVIFHPVFSVMVSASEDATIKVWDYETGDFERTLKGHTDSVQDISFDHSGKLLASCSADMTIKLWDFQGFECIRTMHGHDHNVSSVAIMPNGDHIVSASRDKTIKMWEVQTGYCVKTFTGHREWVRMVRPNQDGTLIASCSNDQTVRVWVVATKECKAELREHEHVVECISWAPESSYSSISEATGSETKKSGKPGPFLLSGSRDKTIKMWDVSTGMCLMTLVGHDNWVRGVLFHSGGKFILSCADDKTLRVWDYKNKRCMKTLNAHEHFVTSLDFHKTAPYVVTGSVDQTVKVWECR		binds
